# Experimental data published in publication doi:10.1101/2025.11.29.691277.
# These are yes or no findings as the source states them, for the method shown. Binding seen in cells or lysates may run through a third protein. A result given as binding can be weak or reduced; the word gives no strength. Where a sequence is shown, tags or fusion partners need not be part of it.
# T1: Chlamydomonas reinhardtii intraflagellar transport-20 (C. reinhardtii (endogenous in wild-type CC-125)) (UniProt Q8LLV9)
# T1 sequence: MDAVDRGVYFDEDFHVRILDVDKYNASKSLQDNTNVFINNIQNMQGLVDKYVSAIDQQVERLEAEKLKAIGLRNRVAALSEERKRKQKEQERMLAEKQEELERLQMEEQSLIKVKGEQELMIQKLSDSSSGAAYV
# B1: Chlamydomonas reinhardtii intraflagellar transport-20 (protein, UniProt Q8LLV9 1-135)
# chain: T1 sequence
# Key:
# [1] = target: T1, Chlamydomonas reinhardtii intraflagellar transport-20 (C. reinhardtii (endogenous in wild-type CC-125)); experiment: co-IP
# [2] = target: Chlamydomonas reinhardtii channelrhodopsin-1 (C. reinhardtii (endogenous in wild-type CC-125)); experiment: co-IP
Molecule,binding [1],binding [2]
Chlamydomonas reinhardtii channelrhodopsin-1,binds,
B1,,binds
